This passage reports CC50 results from US20230416692A1 (BOARD OF REGENTS, THE UNIVERSITY OF TEXAS SYSTEM, priority 2020, published 2023).

This data set is described as follows: in vitro. The settings on record: African green monkey.

Compound `CCC(CC)COC(=O)[C@H](C)N[P@](=O)(OC[C@H]1O[C@@](C#N)(c2ccc3c(N)ncnn23)[C@H](O)[C@@H]1O)Oc1ccccc1` [Remdesivir] displayed a CC50 at 72 h greater than 50 µM.
